Values quoted from earlier work in patent US20160115192A1, “ANTIOXIDANT, ANTI-INFLAMMATORY AND ANTICANCER DERIVATIVES OF TRIPTOLIDE AND NANOSPHERES THEREOF” (CEDARS-SINAI MEDICAL CENTER, priority 2013, published 2016).
At least one structure is not confirmed: it was looked up by name or label, or the drawing left a doubt.

Tests used:
MCF-7 breast cancer cell = settings: cited from earlier work
[1] = system: MDA-MB-231 triplem negative breast cancer cell; settings: cited from earlier work

Row | SMILES | proliferation of MCF-7 breast cancer cell (MCF-7 breast cancer cell) | proliferation of MDA-MB-231 triple negative breast cancer cell [1]
1 | CCC(C)(C)C(=O)O[C@H]1C[C@@H](C)C=C2C=C[C@H](C)[C@H](CC[C@@H]3C[C@@H](O)CC(=O)O3)[C@H]21 [simvastatin] | significantly inhibited | significantly inhibited
2 | CC(C)n1c(/C=C/C(O)CC(O)CC(=O)O)c(-c2ccc(F)cc2)c2ccccc21 (stereo not shown) [fluvastatin] | significantly inhibited | significantly inhibited
